The source of these data is PMC7319344.

By UniProt entry, the sequences of proteins in these tests, tags left out. Where a name states a change or a piece, a line headed by the entry shows the natural chain unless it says otherwise.
UniProt A0A1D8PRQ4: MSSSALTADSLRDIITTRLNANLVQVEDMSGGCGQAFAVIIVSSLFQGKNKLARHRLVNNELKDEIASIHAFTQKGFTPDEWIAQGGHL
UniProt A0A1D8PF19: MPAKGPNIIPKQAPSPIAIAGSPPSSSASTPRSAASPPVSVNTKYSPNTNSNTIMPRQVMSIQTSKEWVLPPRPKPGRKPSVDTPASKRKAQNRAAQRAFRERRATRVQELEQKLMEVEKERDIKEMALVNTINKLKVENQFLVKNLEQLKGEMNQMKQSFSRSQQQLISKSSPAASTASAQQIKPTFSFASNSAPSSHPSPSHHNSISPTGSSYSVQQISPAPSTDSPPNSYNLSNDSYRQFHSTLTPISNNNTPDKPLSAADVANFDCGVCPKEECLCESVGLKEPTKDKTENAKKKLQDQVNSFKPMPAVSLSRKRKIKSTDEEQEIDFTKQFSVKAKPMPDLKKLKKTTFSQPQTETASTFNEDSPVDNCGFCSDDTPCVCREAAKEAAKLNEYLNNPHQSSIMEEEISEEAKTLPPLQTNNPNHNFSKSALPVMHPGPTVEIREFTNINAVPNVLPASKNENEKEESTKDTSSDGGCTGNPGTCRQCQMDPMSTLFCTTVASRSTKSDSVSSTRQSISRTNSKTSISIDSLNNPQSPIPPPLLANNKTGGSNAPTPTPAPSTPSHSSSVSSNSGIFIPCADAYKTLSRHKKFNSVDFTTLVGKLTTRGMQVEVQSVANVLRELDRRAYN

Results are given in words; binding and its absence hold for the method and conditions named. In cells and extracts the contact can be indirect. These calls come from enrichment with a bait or labelling near it, and not all partners need be listed. Where a sequence is shown, tags or fusion partners need not be part of it.

The target of the assay is T1, Grx3-HBH (C. albicans monothiol glutaredoxin Grx3 with His-Biotin-His tag) (C. albicans) (UniProt Q5AF81).
T1 sequence: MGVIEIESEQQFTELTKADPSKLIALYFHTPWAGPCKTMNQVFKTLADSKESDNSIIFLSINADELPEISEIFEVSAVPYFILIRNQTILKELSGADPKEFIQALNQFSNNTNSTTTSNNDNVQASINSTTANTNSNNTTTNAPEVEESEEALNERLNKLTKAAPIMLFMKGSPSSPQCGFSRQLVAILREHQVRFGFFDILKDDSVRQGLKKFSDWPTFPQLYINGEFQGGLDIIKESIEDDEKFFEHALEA
The experiment in a line: affinity purification with mass spectrometry; in vivo cross-linking with 1% formaldehyde for 10 min, His-Biotin-His (HBH) tandem affinity purification of Grx3-HBH under denaturing conditions (lysis in 8M urea buffer), label-free quantitative LC-MS/MS; cells grown in YPM with or without 500 uM BPS for 6hr or 16hr; proteins in untagged control, Wor1/Tup1 HBH purifications and the CRAPome excluded.
For the substance “Bol1 (C. albicans (endogenous in C. albicans))”, the binding entry is given as “binds”.

For the substance Bol2/Fra2 (from UniProt A0A1D8PRQ4), the binding result was “binds”.

Turning to “Dre2 (C. albicans (endogenous in C. albicans))”, the binding entry is “binds”.

On to “Fra1 (C. albicans (endogenous in C. albicans))”, for which the binding entry was “binds”.

Take Hap43 (from UniProt A0A1D8PF19 1-634): the binding entry is “binds”.

With “Met18 (S. cerevisiae Mms19) (C. albicans (endogenous in C. albicans))”, the binding entry was “binds”.
